No constants are given. Whether binding was seen depends on the method and setting. Binding calls can cover weak binding; strength is not graded here. Where a sequence is shown, tags or fusion partners need not be part of it.

The experiment has as its target T1, Tle1 (PA3290), type VI lipase effector, bacterial two-hybrid fusion (Pseudomonas aeruginosa (PAO1)) (UniProt Q9HYV3).
T1 sequence: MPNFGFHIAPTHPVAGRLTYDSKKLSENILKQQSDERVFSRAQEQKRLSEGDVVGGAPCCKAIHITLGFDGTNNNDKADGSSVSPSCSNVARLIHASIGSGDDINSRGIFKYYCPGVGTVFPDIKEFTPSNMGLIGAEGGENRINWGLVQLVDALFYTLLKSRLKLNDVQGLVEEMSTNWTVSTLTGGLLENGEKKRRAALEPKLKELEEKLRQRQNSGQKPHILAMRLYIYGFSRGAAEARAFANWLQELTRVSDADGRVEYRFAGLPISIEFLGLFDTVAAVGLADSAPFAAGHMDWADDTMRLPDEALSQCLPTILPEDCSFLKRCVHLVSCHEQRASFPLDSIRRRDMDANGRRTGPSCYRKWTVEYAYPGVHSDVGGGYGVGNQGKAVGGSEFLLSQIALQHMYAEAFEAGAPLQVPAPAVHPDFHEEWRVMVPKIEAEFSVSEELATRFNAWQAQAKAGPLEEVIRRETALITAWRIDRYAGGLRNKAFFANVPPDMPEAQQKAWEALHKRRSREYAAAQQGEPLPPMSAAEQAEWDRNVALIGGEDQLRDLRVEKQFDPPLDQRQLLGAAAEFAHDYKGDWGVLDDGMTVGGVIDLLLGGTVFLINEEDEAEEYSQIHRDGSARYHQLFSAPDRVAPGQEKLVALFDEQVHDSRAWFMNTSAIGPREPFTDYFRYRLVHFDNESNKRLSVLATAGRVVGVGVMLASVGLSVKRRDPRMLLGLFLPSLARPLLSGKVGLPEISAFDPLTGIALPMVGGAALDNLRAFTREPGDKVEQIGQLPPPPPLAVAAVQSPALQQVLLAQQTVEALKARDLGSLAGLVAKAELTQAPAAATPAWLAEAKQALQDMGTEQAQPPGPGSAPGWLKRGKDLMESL
In words: two-hybrid; bacterial adenylate cyclase two-hybrid (BACTH): proteins or domains fused to the T18 or T25 domain of B. pertussis adenylate cyclase, coproduced in E. coli BTH101, spotted on X-gal indicator plates; blue colony reflects interaction; triplicate.

As to “Tli1a (PA3291) without its lipoprotein signal sequence, bacterial two-hybrid fusion (Pseudomonas aeruginosa (PAO1))”, the binding entry is “binds”. Consider “Tli1b (PA3292) without its lipoprotein signal sequence, bacterial two-hybrid fusion (Pseudomonas aeruginosa (PAO1))”, for which the binding entry is given as “no binding”.
